This assay has as its target LC3C (endogenous, human primary gingival epithelial cells) (human (endogenous in primary GECs)) (UniProt Q9BXW4). Description: co-IP.

Protein sequences, listed by entry. Tags and fused reporters are not part of them. Residues count along the entry.
UniProt Q9BXW4, residues 1-126: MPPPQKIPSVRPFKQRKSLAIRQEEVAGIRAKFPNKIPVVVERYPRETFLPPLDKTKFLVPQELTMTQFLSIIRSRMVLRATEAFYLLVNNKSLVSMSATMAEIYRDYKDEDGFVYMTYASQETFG
UniProt P04792: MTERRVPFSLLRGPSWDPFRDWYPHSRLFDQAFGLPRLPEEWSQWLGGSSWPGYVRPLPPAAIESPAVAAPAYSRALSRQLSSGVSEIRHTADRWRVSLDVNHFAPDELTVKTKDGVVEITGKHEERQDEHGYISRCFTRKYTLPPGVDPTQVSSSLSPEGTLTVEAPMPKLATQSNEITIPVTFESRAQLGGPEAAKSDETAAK

These are yes or no findings as the source states them, for the method shown. Binding seen in cells or lysates may run through a third protein. Some binding calls cover weakened binding; strength is not graded here.

For “Heat Shock Protein 27 (HSp27) (endogenous, human primary gingival epithelial cells) (from UniProt P04792 1-205)”, the binding result is recorded as “binds”.
